Consider 23 compounds from PubChem BioAssay AID256 (DTP/NCI, 2004).

The list is a part of this screen's results and no random one: it gathers tests that were run many times, whatever their T/C, doses with no T/C, and many T/C values between a quarter and a half above the control. Further doses and runs are listed elsewhere. T/C gives the treated animals as a percentage of the vehicle group. Some entries give survivors of the animals treated and no T/C: the source holds a T/C of zero for them, seemingly a mark for toxic or unscored doses. Some survivor counts are full or nearly so, which does not show that the dose was tolerated: survival well below the control is almost never listed, so the zero probably covers shortened survival too. Counts of survivors are from the toxicity check (mostly the fifth day) where no day follows; animals may have died later. Schedules are NCI's codes, read here as Q, the interval in days (D) or hours (H), X, the number of doses. Some doses were run more than once; the results are listed from low to high. For survival time, the PubChem record calls one and a half times the control and up active, and a quarter to a half above the control has no call in these data; cut-offs in other NCI protocols can differ. Some T/C values are followed by the survivors on the day toxicity was checked, most often the fifth; where none is given, no animal had died by that day.

The subject of this test is CD2F1 mice, L1210 leukemia ip, survival T/C. Put plainly: NCI In Vivo Anticancer Drug Screen. Data for tumor model L1210 Leukemia (intraperitoneal) in CD2F1 (CDF1) mice. The conditions noted are these: higher T/C = longer survival. The procedure, abridged: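 Implant tumor; dose compound or vehicle; measure endpoint in both groups; report treated divided by control.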
[1] abbreviates: T/C endpoint: median survival time, dose: 200.0 mg/kg/injection, schedule: Q01DX009 (ip), vehicle: saline with Tween-80.
[2] abbreviates: T/C endpoint: mean survival time, dose: 25.0 mg/kg/injection, schedule: Q01DX009 (ip), vehicle: saline with Tween-80.
Where [3] appears, read: T/C endpoint: mean survival time, dose: 400.0 mg/kg/injection, schedule: Q01DX009 (ip), vehicle: saline.
[4] abbreviates: T/C endpoint: mean survival time, dose: 200.0 mg/kg/injection, schedule: Q01DX001 (ip), vehicle: saline.
Where [5] appears, read: T/C endpoint: mean survival time, dose: 400.0 mg/kg/injection, schedule: Q01DX001 (ip), vehicle: saline.
The mark [6] stands for this setting: T/C endpoint: mean survival time, dose: 100.0 mg/kg/injection, schedule: Q04DX003 (ip), vehicle: saline with Tween-80.
Setting [7] is: T/C endpoint: mean survival time, dose: 400.0 mg/kg/injection, schedule: Q01DX001 (ip), vehicle: saline with Tween-80.

Regarding `CCOC(=O)c1[nH]c2cccc3c2c1CC(Br)C3=O` (stereo unspecified), the survivor count by setting is: under setting [1], 3 of 6; (T/C endpoint: median survival time, dose: 400.0 mg/kg/injection, schedule: Q01DX009 (ip), vehicle: saline with Tween-80) 0 of 6.

For `Clc1ccc(N=C/C=C/c2ccccc2)cc1`, the survivor count (T/C endpoint: mean survival time, dose: 200.0 mg/kg/injection, schedule: Q04DX003 (ip), vehicle: other) was 6 of 6.

Consider `Nc1ccc(C(OC(=O)c2cc3ccccc3c(Cc3c(O)c(C(=O)OC(c4ccc(N)cc4)(c4ccc(N)cc4)c4ccc(N)cc4)cc4ccccc34)c2O)(c2ccc(N)cc2)c2ccc(N)cc2)cc1`, for which the survivor count under setting [2] is on record as 4 of 6.

As to `Cc1ccc(C(=O)c2ccc(C)cc2)cc1`, the survivor count (T/C endpoint: mean survival time, dose: 800.0 mg/kg/injection, schedule: Q04DX002 (ip), vehicle: saline) is given as 0 of 6.

For `COC(=O)c1n[nH]c(C(C)C)c1N=NN(C)C`, for the setting “T/C endpoint: mean survival time, dose: 300.0 mg/kg/injection, schedule: Q01DX009 (ip), vehicle: saline with Tween-80”, the survivor count is on record as 0 of 6.

Take `NCCCc1ccccc1`: under setting [3], the survivor count was 0 of 6.

`NC(CSC(c1ccccc1)(c1ccccc1)c1cccc2ccccc12)C(=O)O` (stereo unspecified): the survivor count under setting [3] is on record as 0 of 6.

`COc1cc([N+](=O)[O-])c2nc(/C=N/NC(N)=S)ccc2c1`: the survivor count runs as follows: under setting [4], 6 of 6; under setting [5], 6 of 6.

For the compound `ClCCN(CCCl)c1ccc(CNCCCNCc2ccc(N(CCCl)CCCl)cc2)cc1`, the T/C (T/C endpoint: mean survival time, dose: 5.0 mg/kg/injection, schedule: Q01DX009 (ip), vehicle: saline sonified) was 128 % of control. In addition, the survivor count is on record as 3 of 6 (T/C endpoint: mean survival time, dose: 10.0 mg/kg/injection, schedule: Q01DX009 (ip), vehicle: saline with Tween-80); 2 of 6 (T/C endpoint: mean survival time, dose: 20.0 mg/kg/injection, schedule: Q01DX009 (ip), vehicle: saline with Tween-80); 0 of 6 (T/C endpoint: mean survival time, dose: 40.0 mg/kg/injection, schedule: Q01DX009 (ip), vehicle: saline with Tween-80).

As to `O=[N+]([O-])c1ccc(F)cc1`, the survivor count runs as follows: (T/C endpoint: mean survival time, dose: 100.0 mg/kg/injection, schedule: Q04DX003 (ip), vehicle: saline) 3 of 6; (T/C endpoint: mean survival time, dose: 200.0 mg/kg/injection, schedule: Q04DX003 (ip), vehicle: saline) 0 of 6; (T/C endpoint: mean survival time, dose: 400.0 mg/kg/injection, schedule: Q04DX003 (ip), vehicle: saline) 1 of 6.

Turning to `O=[N+]([O-])c1ccc(Sc2ccncn2)c([N+](=O)[O-])c1`, under setting [1], the survivor count is recorded as 1 of 6.

As for `Nc1nc(=S)c2ncn(C3OC(CO)C(O)C3O)c2[nH]1` (stereo unspecified), the T/C runs as follows: (T/C endpoint: mean survival time, dose: 8.0 mg/kg/injection, schedule: Q01DX005 (ip), vehicle: saline + alcohol) 145 % of control; (T/C endpoint: mean survival time, dose: 10.0 mg/kg/injection, schedule: Q01DX007 (ip), vehicle: saline) 134 % of control; (T/C endpoint: mean survival time, dose: 10.0 mg/kg/injection, schedule: Q01DX009 (ip), vehicle: saline) 137 % of control; (T/C endpoint: mean survival time, dose: 16.0 mg/kg/injection, schedule: Q01DX005 (ip), vehicle: saline + alcohol) 141 % of control; (T/C endpoint: mean survival time, dose: 18.8 mg/kg/injection, schedule: Q01DX009 (ip), vehicle: saline) 140 % of control; (T/C endpoint: mean survival time, dose: 20.0 mg/kg/injection, schedule: Q01DX009 (ip), vehicle: saline) 137 % of control. The T/C (T/C endpoint: mean survival time, dose: 40.0 mg/kg/injection, schedule: Q03DX003 (ip), vehicle: saline) is 140 % of control and the T/C (T/C endpoint: mean survival time, dose: 600.0 mg/kg/injection, schedule: Q01DX001 (ip), vehicle: saline) is 144 % of control [5 of 6 alive]. Moreover, the survivor count is listed as 6 of 6 (T/C endpoint: mean survival time, dose: 40.0 mg/kg/injection, schedule: Q01DX007 (ip), vehicle: saline) and 4 of 6 (T/C endpoint: mean survival time, dose: 150.0 mg/kg/injection, schedule: Q01DX009 (ip), vehicle: saline).

Turning to `O=C(CCN1CC1)Nc1cccc(NC(=O)CCN2CC2)c1`, the T/C is, setting by setting: (T/C endpoint: mean survival time, dose: 1.1 mg/kg/injection, schedule: Q01DX009 (ip), vehicle: Klucel (hydroxypropylcellulose) (HPC)) 128 % of control; (T/C endpoint: mean survival time, dose: 2.5 mg/kg/injection, schedule: Q01DX009 (ip), vehicle: Klucel (hydroxypropylcellulose) (HPC)) 129 % of control; (T/C endpoint: mean survival time, dose: 5.0 mg/kg/injection, schedule: Q01DX009 (ip), vehicle: Klucel (hydroxypropylcellulose) (HPC)) 128 and 140 % of control; (T/C endpoint: mean survival time, dose: 6.0 mg/kg/injection, schedule: Q01DX009 (ip), vehicle: Klucel (hydroxypropylcellulose) (HPC)) 132 % of control; (T/C endpoint: mean survival time, dose: 10.0 mg/kg/injection, schedule: Q01DX009 (ip), vehicle: Klucel (hydroxypropylcellulose) (HPC)) 146 % of control. Besides, the survivor count is 5 of 6 and 6 of 6 (T/C endpoint: mean survival time, dose: 40.0 mg/kg/injection, schedule: Q01DX009 (ip), vehicle: Klucel (hydroxypropylcellulose) (HPC)); 1 of 6 (T/C endpoint: mean survival time, dose: 80.0 mg/kg/injection, schedule: Q01DX009 (ip), vehicle: Klucel (hydroxypropylcellulose) (HPC)).

As for `COc1cc2cc3cc4cc(OC)c(OC)cc4c(C)[n+]3cc2cc1OC` (tested in a mixture with another compound), the survivor count (T/C endpoint: mean survival time, dose: 400.0 mg/kg/injection, schedule: Q01DX009 (ip), vehicle: suspension in saline) is 4 of 6.

With `O=C(O)C(F)(F)C(F)(F)C(F)(F)C(F)=C(F)F`, the survivor count (T/C endpoint: mean survival time, dose: 300.0 mg/kg/injection, schedule: Q01DX001 (ip), vehicle: saline) is on record as 2 of 6.

As to `CC(C)(C)OC(=O)CSC#N`, the survivor count reads like this: (T/C endpoint: mean survival time, dose: 100.0 mg/kg/injection, schedule: Q01DX001 (ip), vehicle: saline) 0 of 4; under setting [4], 0 of 4; under setting [5], 0 of 4.

`COc1ccc(CC(N)C(=O)OCc2ccccc2)cc1N(CCCl)CCCl` (stereo unspecified): the T/C (T/C endpoint: mean survival time, dose: 0.7 mg/kg/injection, schedule: Q01DX009 (ip), vehicle: saline) was 130 % of control and the T/C (T/C endpoint: mean survival time, dose: 1.5 mg/kg/injection, schedule: Q01DX009 (ip), vehicle: saline) is 144 % of control.

Regarding `O=C(Nc1cccc(Cl)c1)Nc1ccccc1Cl`, the survivor count under setting [6] is given as 6 of 6.

In the case of `NC(=S)N/N=C/c1ccc(OC(=O)COc2ccccc2Cl)cn1`, the T/C is, setting by setting: (T/C endpoint: mean survival time, dose: 50.0 mg/kg/injection, schedule: Q01DX009 (ip), vehicle: saline with Tween-80) 132 and 135 % of control; (T/C endpoint: mean survival time, dose: 100.0 mg/kg/injection, schedule: Q01DX009 (ip), vehicle: saline with Tween-80) 144 % of control; under setting [6], 125 % of control; (T/C endpoint: mean survival time, dose: 200.0 mg/kg/injection, schedule: Q04DX003 (ip), vehicle: saline with Tween-80) 136 and 145 % of control; under setting [7], 129 % of control [9 of 10 alive]; (T/C endpoint: mean survival time, dose: 400.0 mg/kg/injection, schedule: Q04DX002 (ip), vehicle: saline with Tween-80) 130 and 137 % of control. In addition, under “T/C endpoint: mean survival time, dose: 800.0 mg/kg/injection, schedule: Q04DX002 (ip), vehicle: saline with Tween-80”, the T/C was 141 % of control. In addition, the survivor count (T/C endpoint: mean survival time, dose: 400.0 mg/kg/injection, schedule: Q01DX009 (ip), vehicle: saline with Tween-80) is listed as 10 of 10.

`CCCCP(=O)(O)O`: the survivor count under setting [7] was 1 of 6.

`COc1ccc2[nH]c3c(C)c4cc[n+](C)cc4c(C)c3c2c1`: the T/C (T/C endpoint: mean survival time, dose: 16.5 mg/kg/injection, schedule: Q04DX003 (ip), vehicle: saline sonified) is 130 % of control. The survivor count is given as 5 of 6 under setting [2]; 1 of 6 (T/C endpoint: mean survival time, dose: 100.0 mg/kg/injection, schedule: Q04DX003 (ip), vehicle: saline sonified); 2 of 6 (T/C endpoint: mean survival time, dose: 200.0 mg/kg/injection, schedule: Q04DX003 (ip), vehicle: saline sonified); 0 of 6 (T/C endpoint: mean survival time, dose: 400.0 mg/kg/injection, schedule: Q04DX003 (ip), vehicle: saline sonified).

On to `CCCCNc1ncnc2c1cnn2C`, for which, under “T/C endpoint: median survival time, dose: 250.0 mg/kg/injection, schedule: Q01DX009 (ip), vehicle: saline”, the survivor count is reported as 0 of 6.

Regarding `O=CO.[Cu+2]`, the survivor count (T/C endpoint: mean survival time, dose: 20.0 mg/kg/injection, schedule: Q01DX001 (ip), vehicle: saline) was 0 of 6; the survivor count (T/C endpoint: mean survival time, dose: 40.0 mg/kg/injection, schedule: Q01DX001 (ip), vehicle: saline) is on record as 0 of 6; the survivor count (T/C endpoint: mean survival time, dose: 80.0 mg/kg/injection, schedule: Q01DX001 (ip), vehicle: saline) is 0 of 6.
